The target in the test is T1, Ies6-5×Flag (Schizosaccharomyces pombe) (UniProt Q9UTE8).
T1 sequence: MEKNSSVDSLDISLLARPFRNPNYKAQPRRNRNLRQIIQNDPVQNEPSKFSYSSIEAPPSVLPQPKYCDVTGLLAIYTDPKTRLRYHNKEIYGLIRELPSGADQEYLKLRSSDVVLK
The test is described as follows: co-IP; S. pombe log-phase cell extracts in NP40 lysis buffer (1% NP40, 200 mM NaCl, 2 mM EDTA, phosphate); immunoprecipitation with anti-Flag (M2)-agarose of Ies6-5×Flag; western blot with anti-Flag and anti-CENP-A^Cnp1; CENP-A^Cnp1 overexpressed.

Sequences of proteins named here, by UniProt entry; tags and fusion partners are left off.
UniProt Q9Y812: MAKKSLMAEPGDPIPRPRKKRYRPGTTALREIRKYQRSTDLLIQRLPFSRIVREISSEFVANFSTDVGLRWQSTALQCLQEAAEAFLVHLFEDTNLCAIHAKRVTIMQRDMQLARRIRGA

Results are given in words; binding and its absence hold for the method and conditions named. In cells and extracts the contact can be indirect. Some entries that bind do so weakly or less than the wild type. Sequences can lack the tags named with a protein.

“centromere protein A (CENP-A^Cnp1) (from UniProt Q9Y812 1-120)”: the binding entry is given as “binds”.

The values are drawn from PMC5597579.
